The target of assay [1] is Flag-HDAC6 (wild-type, full length, ectopic) (human) (UniProt Q9UBN7). Nature of the assay: anti-Flag co-immunoprecipitation of Flag-HDAC6 from co-transfected U2OS cells, anti-Myc immunoblot. A general note: A western blot detects proteins with antibodies after separation by electrophoresis.
The target of assay [2] is HR23B, endogenous (Homo sapiens (Human)) (UniProt P54727). Nature of the assay: anti-Flag co-immunoprecipitation from transfected U2OS cells, immunoblot for endogenous HR23B.
The target of assay [3] is HR23B wild-type, myc/his tagged (Homo sapiens (Human)) (UniProt P54727). Nature of the assay: anti-Flag co-immunoprecipitation from U2OS cells co-transfected with Flag-HDAC6 and myc-tagged HR23B, anti-Myc immunoblot (FIG. 4b).
The target of assay [4] is HR23B, endogenous (Homo sapiens (Human)) (UniProt P54727). Nature of the assay: anti-Flag co-immunoprecipitation of transfected Flag-HDAC6 from U2OS cells, immunoblot for endogenous HR23B (FIG. 4a).
For assay [5] the target is unchanged. Nature of the assay: summary of the co-immunoprecipitation results of Example 4.
Assay [6] has the same target. Nature of the assay: co-immunoprecipitation of endogenous proteins from U2OS extracts (anti-HR23B or anti-HDAC6), immunoblot.

Amino acid sequences for entries named in this document (tags omitted). A change or cut given only in a name is not applied to a line headed by its entry.
UniProt Q9UBN7: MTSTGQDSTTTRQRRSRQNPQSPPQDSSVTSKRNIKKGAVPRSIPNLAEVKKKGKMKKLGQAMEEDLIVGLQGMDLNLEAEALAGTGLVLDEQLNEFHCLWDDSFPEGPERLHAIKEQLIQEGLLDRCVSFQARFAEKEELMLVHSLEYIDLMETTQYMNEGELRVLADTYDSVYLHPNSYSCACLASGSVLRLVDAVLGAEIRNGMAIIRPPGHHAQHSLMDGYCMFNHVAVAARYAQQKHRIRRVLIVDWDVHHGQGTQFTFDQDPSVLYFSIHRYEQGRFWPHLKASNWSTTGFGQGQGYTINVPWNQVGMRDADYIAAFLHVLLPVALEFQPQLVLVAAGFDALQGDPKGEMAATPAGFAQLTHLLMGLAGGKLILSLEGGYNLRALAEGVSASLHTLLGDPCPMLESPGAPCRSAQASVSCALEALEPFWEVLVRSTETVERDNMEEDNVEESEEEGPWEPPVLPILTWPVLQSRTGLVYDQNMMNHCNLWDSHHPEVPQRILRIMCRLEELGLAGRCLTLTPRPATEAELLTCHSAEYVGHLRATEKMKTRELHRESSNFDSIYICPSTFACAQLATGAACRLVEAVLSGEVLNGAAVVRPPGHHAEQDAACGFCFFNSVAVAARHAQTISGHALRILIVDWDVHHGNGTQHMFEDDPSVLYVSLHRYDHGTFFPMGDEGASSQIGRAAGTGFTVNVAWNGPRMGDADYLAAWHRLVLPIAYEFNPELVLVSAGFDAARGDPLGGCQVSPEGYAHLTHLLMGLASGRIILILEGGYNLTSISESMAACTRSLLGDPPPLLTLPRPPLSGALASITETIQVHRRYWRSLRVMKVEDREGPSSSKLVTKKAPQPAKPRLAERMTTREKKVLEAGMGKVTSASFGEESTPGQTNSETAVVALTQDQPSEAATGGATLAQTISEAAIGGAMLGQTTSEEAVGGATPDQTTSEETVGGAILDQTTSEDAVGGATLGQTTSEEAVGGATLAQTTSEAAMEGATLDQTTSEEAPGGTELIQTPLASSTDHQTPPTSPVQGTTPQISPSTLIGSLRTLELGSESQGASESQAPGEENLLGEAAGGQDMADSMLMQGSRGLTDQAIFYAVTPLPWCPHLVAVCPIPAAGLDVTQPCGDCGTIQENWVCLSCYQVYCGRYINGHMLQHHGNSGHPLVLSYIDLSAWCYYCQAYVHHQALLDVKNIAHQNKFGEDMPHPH
UniProt P54727: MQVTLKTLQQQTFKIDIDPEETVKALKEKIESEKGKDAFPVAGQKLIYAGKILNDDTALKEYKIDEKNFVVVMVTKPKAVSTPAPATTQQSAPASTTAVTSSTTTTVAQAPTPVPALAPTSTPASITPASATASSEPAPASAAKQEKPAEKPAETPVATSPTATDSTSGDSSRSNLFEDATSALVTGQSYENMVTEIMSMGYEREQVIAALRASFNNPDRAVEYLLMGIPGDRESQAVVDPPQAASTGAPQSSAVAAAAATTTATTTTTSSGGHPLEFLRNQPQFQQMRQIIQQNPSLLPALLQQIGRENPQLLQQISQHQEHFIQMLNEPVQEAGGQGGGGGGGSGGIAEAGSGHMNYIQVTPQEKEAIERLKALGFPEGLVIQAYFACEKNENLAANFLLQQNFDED

No constants are given. Whether binding was seen depends on the method and setting. In cells and extracts the contact can be indirect. Some entries that bind do so weakly or less than the wild type.

In the case of “HR23B wild-type, myc/his tagged (from UniProt P54727 1-409)”, in assay [1], the binding result was “binds”.
On the same count and under the same terms, in the case of “HR23B ΔUbA, myc/his tagged (from UniProt P54727 1-189)” it was “binds”.
In the case of “Flag-HDAC6 ΔN (439-1215) (from UniProt Q9UBN7 439-1215) (enzyme)”, in assay [2], the binding entry was “binds”.
On to “Flag-HDAC6 (wild-type, full length, ectopic) (from UniProt Q9UBN7 1-1215) (enzyme)”, for which the binding entry in assay [3] and in assay [4] was “binds” each time.
As for “HDAC6 (histone deacetylase 6), endogenous (from UniProt Q9UBN7 1-1215) (enzyme)”, the binding entry in assay [5] and in assay [6] was “binds” in each case.
In the case of “Flag-HDAC6 BUZ (BUZ domain alone) (from UniProt Q9UBN7 1109-1215)”, in assay [2], the binding result was “binds”.

Values taken from patent US20160069887A1, “BIOMARKERS FOR PROGNOSIS” (ISIS INNOVATION LIMITED, priority 2013, published 2016).
